Values of other authors, collected in patent US20050228335A1, “Physical, structural, mechanical, electrical and electromechanical features for use in association with electrically assisted delivery devices and systems” (priority 2004, published 2005).
Some entries share one result that the patent states for a list of compounds. For at least one compound, name, drawing or mass did not settle the structure.

Conditions: without epinephrine

CCCCN1CCCCC1C(=O)Nc1c(C)cccc1C (stereo not drawn) [Bupivacaine, bupivacaine]
Duration of effects: 3 to 4 h

CCN(CC)CCOC(=O)c1ccc(N)cc1Cl [chloroprocaine]
Duration of effects: < 2 h

CCCN(CC)C(CC)C(=O)Nc1c(C)cccc1C (stereo not drawn) [etidocaine]
Duration of effects: 3 to 4 h

Cc1cccc(C)c1NC(=O)C1CCCCN1C (stereo not drawn) [mepivacaine]
Duration of effects: 3 to 4 h

CCCNC(C)C(=O)Nc1ccccc1C (stereo not drawn) [prilocalne]
Duration of effects: < 2 h

CCN(CC)CCOC(=O)c1ccc(N)cc1 [procaine]
Duration of effects: < 2 h
